Results published in publication PMC12551140.
Results are given in words; binding and its absence hold for the method and conditions named. In cells and extracts the contact can be indirect. Some results given as binding are weak or reduced against the parent protein; the word gives no strength. For some assays here: Tags and fused reporters may be left off the sequences shown.

Amino acid sequences for entries named in this document (tags omitted).
UniProt Q99PP9: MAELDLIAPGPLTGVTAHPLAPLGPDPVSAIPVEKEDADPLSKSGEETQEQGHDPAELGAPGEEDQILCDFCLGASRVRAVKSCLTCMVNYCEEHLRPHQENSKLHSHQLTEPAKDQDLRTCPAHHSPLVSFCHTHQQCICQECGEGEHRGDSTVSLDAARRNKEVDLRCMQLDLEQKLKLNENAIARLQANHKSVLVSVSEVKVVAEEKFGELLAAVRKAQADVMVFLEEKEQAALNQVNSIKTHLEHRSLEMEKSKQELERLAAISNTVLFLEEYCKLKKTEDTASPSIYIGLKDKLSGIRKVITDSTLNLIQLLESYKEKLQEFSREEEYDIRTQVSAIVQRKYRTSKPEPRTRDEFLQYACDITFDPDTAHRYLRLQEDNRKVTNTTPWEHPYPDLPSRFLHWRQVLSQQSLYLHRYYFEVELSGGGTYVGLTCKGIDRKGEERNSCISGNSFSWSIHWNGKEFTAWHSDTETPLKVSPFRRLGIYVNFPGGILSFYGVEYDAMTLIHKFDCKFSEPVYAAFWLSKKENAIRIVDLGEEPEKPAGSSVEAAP

Legend:
[1] = molecular target: T1, TRAF2, endogenous mouse (mouse (endogenous in RAW264.7 and mouse colon)) (UniProt P39429); test: co-IP; endogenous proteins in RAW264.7 cell lysates; IP with anti-TRAF2 or anti-TRIM16 antibody on protein A/G beads, overnight at 4°C, western blotting; also cells treated with LPS (50 ng/mL), which diminished the interaction
T1 sequence: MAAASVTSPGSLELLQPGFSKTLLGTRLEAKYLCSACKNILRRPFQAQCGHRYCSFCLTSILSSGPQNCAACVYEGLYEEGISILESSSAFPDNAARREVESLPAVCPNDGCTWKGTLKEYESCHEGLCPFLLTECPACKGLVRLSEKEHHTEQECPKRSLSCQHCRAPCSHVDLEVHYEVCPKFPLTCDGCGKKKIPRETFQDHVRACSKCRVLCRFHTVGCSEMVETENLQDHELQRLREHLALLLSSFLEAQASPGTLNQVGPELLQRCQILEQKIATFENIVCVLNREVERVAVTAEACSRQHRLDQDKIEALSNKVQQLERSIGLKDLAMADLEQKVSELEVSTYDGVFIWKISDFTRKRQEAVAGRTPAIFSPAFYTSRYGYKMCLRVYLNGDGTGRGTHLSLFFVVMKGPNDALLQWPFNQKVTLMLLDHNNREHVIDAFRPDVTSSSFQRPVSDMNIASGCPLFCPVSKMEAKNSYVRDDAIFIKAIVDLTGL

[2] = molecular target: T1, TRAF2, endogenous mouse (mouse (endogenous in RAW264.7 and mouse colon)); test: co-IP; endogenous proteins in intestinal samples from mice treated with or without DSS; interaction weakened with DSS
[3] = molecular target: T2, MYC-TRAF2 (tumour necrosis factor receptor-associated factor 2) (UniProt P39429); test: co-IP; HEK293T cells cotransfected with FLAG-TRIM16 and MYC-TRAF2; IP of lysates with an anti-MYC or anti-Flag antibody, western blotting
T2 sequence: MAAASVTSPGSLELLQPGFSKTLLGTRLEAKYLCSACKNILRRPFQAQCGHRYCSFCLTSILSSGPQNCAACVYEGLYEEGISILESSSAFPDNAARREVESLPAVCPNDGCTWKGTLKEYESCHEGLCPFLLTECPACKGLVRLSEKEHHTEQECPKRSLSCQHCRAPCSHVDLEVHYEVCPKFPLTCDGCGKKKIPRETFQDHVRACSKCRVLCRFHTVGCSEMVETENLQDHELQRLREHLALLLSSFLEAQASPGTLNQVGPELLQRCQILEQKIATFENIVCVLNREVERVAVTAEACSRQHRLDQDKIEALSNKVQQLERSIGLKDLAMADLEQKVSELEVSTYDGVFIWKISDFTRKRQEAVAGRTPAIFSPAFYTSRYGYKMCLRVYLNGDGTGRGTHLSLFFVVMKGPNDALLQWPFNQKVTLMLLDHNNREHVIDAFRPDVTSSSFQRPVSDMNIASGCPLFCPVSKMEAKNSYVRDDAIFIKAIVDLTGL

[4] = molecular target: FLAG-TRIM16 (tripartite motif 16) (UniProt Q99PP9); test: as above
[5] = molecular target: TRIM16, endogenous mouse (mouse (endogenous in RAW264.7 and mouse colon)) (UniProt Q99PP9); test: co-IP; endogenous proteins in RAW264.7 cell lysates; IP with anti-TRAF2 or anti-TRIM16 antibody on protein A/G beads, overnight at 4°C, western blotting; also cells treated with LPS (50 ng/mL), which diminished the interaction

TRIM16, endogenous mouse (from UniProt Q99PP9 1-556)
binding [1]: binds
binding [2]: binds

FLAG-TRIM16 (tripartite motif 16) (from UniProt Q99PP9 1-556)
binding [3]: binds

B1: MYC-TRAF2 (tumour necrosis factor receptor-associated factor 2) (protein, UniProt P39429 1-501)
chain: MAAASVTSPGSLELLQPGFSKTLLGTRLEAKYLCSACKNILRRPFQAQCGHRYCSFCLTSILSSGPQNCAACVYEGLYEEGISILESSSAFPDNAARREVESLPAVCPNDGCTWKGTLKEYESCHEGLCPFLLTECPACKGLVRLSEKEHHTEQECPKRSLSCQHCRAPCSHVDLEVHYEVCPKFPLTCDGCGKKKIPRETFQDHVRACSKCRVLCRFHTVGCSEMVETENLQDHELQRLREHLALLLSSFLEAQASPGTLNQVGPELLQRCQILEQKIATFENIVCVLNREVERVAVTAEACSRQHRLDQDKIEALSNKVQQLERSIGLKDLAMADLEQKVSELEVSTYDGVFIWKISDFTRKRQEAVAGRTPAIFSPAFYTSRYGYKMCLRVYLNGDGTGRGTHLSLFFVVMKGPNDALLQWPFNQKVTLMLLDHNNREHVIDAFRPDVTSSSFQRPVSDMNIASGCPLFCPVSKMEAKNSYVRDDAIFIKAIVDLTGL
binding [4]: binds

B2: TRAF2, endogenous mouse (protein, UniProt P39429 1-501)
chain: MAAASVTSPGSLELLQPGFSKTLLGTRLEAKYLCSACKNILRRPFQAQCGHRYCSFCLTSILSSGPQNCAACVYEGLYEEGISILESSSAFPDNAARREVESLPAVCPNDGCTWKGTLKEYESCHEGLCPFLLTECPACKGLVRLSEKEHHTEQECPKRSLSCQHCRAPCSHVDLEVHYEVCPKFPLTCDGCGKKKIPRETFQDHVRACSKCRVLCRFHTVGCSEMVETENLQDHELQRLREHLALLLSSFLEAQASPGTLNQVGPELLQRCQILEQKIATFENIVCVLNREVERVAVTAEACSRQHRLDQDKIEALSNKVQQLERSIGLKDLAMADLEQKVSELEVSTYDGVFIWKISDFTRKRQEAVAGRTPAIFSPAFYTSRYGYKMCLRVYLNGDGTGRGTHLSLFFVVMKGPNDALLQWPFNQKVTLMLLDHNNREHVIDAFRPDVTSSSFQRPVSDMNIASGCPLFCPVSKMEAKNSYVRDDAIFIKAIVDLTGL
binding [5]: binds
